Values quoted from earlier work, collected in patent publication US7022720B2, “Synthetic diazonamides as novel anti-mitotic agents” (Board of Regents, The University of Texas System, priority 2001, dated 2006).

test system: NCI 60-cell line human tumor screen; details: COMPARE analysis, TGI level; cited from earlier work

Going from `CO[C@@H](/C(C)=C/C=C/C(C)=C/c1coc(C)n1)[C@@H](C)[C@@H]1C[C@H](O)[C@@]2(C)O[C@@H]2/C=C/[C@@H](C)[C@H]2C[C@H](CC(=O)O2)C[C@@H]2O[C@H]2C(=O)O1` [Rhizoxin] to `COc1cc2cc(c1Cl)N(C)C(=O)C[C@H](OC(=O)[C@H](C)N(C)C(C)=O)[C@]1(C)O[C@H]1[C@H](C)[C@@H]1C[C@@](O)(NC(=O)O1)[C@H](OC)/C=C/C=C(\C)C2` [Maytansine], the “TGI (PCC), pairwise correlation coefficient with diazonamide” value rises from 0.593 to 0.615.

Going from `CC[C@]1(O)C[C@H]2CN(CCc3c([nH]c4ccccc34)[C@@](C(=O)OC)(c3cc4c(cc3OC)N(C=O)[C@H]3[C@@](O)(C(=O)OC)[C@H](OC(C)=O)[C@]5(CC)C=CCN6CC[C@]43[C@@H]65)C2)C1` [Vincristine] to `CC[C@]1(O)C[C@@H]2CN(CCc3c([nH]c4ccccc34)[C@@](C(=O)OC)(c3cc4c(cc3OC)N(C)[C@H]3[C@@](O)(C(=O)OC)[C@H](OC(C)=O)[C@]5(CC)C=CCN6CC[C@]43[C@@H]65)C2)C1` [vinblastine], the “TGI (PCC), pairwise correlation coefficient with diazonamide” value rises from 0.610 to 0.679.
